# In all, about 360,000 compounds went through this assay and about 7,500 (2.1%) were called active. Inconclusive results, whose numbers are uncertain, are shown with a selection of clear calls. The call rests on the fitted dose curve; in most records, active means well fitted inhibition curve with a large enough effect; inconclusive means small, poorly fitted or top-dose-only effect, or effect the other way; inactive means flat fitted curve, though single readings scatter. Where the call is inconclusive, the potency comes from a doubtful curve fit.
# Experiment: Nrf2 qHTS screen for inhibitors; further: nearly all actives have a fitted effect of over 60% in size
# Details: A549 ARE-Fluc reporter, luciferase luminescence, 18-24 h; series mostly up to 46 µM
# Summary of the method: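 Cells were seeded and rested 2 h, then exposed to compounds for 18-24 h. CellTiter-Fluor was read first as a viability measure. BugLite was added 15 min before the final luminescent read of ARE-luciferase activity in A549 cells.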
# Potency means the concentration at half of the fitted maximal effect.
row,SMILES,Potency
1,O=C(N/N=C\c1ccc(F)cc1)c1ccc(Cn2cc(Br)c([N+](=O)[O-])n2)o1,"inconclusive: 29.1 µM [falling, single point]"
2,CC(C)[C@H](NC(=O)c1cccc(S(=O)(=O)N2CCOCC2)c1)C(=O)NCc1ccc(F)cc1,"inconclusive: 25.9 µM [falling, partial curve, poor fit]"
3,C/C(=N\NC(=O)c1cc2ccccc2cc1O)c1cccs1,"inconclusive: 23.1 µM [activator, partial curve]"
4,Nc1nc(-c2ccc(Cl)cc2)cn1N,"inconclusive: 4.11 µM [activator, single point]"
5,COc1cc([N+](=O)[O-])ccc1NC(=O)NNC(=O)C(C)Oc1ccc(F)cc1F (stereo not given),inactive
6,CCOC(=O)c1ccc(NC(=S)N(CCN(C)C)Cc2cccs2)cc1,"inconclusive: 25.9 µM [activator, single point]"
7,CCn1nc(C(=O)N[C@@H](CCSC)c2nc3ccccc3[nH]2)c2ccccc2c1=O,"inconclusive: 20.6 µM [activator, single point]"
8,COc1ccc(-c2ccc(NS(=O)(=O)c3cc([N+](=O)[O-])ccc3C)cc2)nn1,"inconclusive: 0.206 µM [falling, full curve, poor fit]"
9,Cc1ccc(OCC(=O)c2ccc3c(c2)CCCC3)cc1C,inactive
10,CCCCCCOc1ccc(OC(=O)c2cccnc2)cc1,"inconclusive: 1.84 µM [falling, full curve, poor fit]"
11,Cc1ccc(S(=O)(=O)N(C)CC(=O)N2CCN(Cc3ccc4c(c3)OCO4)CC2)cc1,"inconclusive: 20.6 µM [falling, partial curve]"
12,COc1cc(CNCc2ccccn2)ccc1OCc1c(Cl)cccc1Cl,"inconclusive: 16.4 µM [falling, partial curve, poor fit]"
13,CCCOc1ccc(C(=O)NC(=S)NNC(=O)c2c(-c3ccccc3)noc2C)cc1,"inconclusive: 18.4 µM [falling, partial curve, poor fit]"
14,CCOC(=O)c1cccc(NC(=O)C2CCCN(S(=O)(=O)c3cnc[nH]3)C2)c1 (stereo not given),"inconclusive: 32.6 µM [falling, single point]"
15,CCCCCc1cc(=O)oc2c(C(CCN3CCCC(C)C3)c3ccc(OC)cc3)c(OC)cc(OC)c12 (stereo not given),"inconclusive: 32.6 µM [falling, single point]"
16,CC(NS(=O)(=O)c1ccc(OCC(=O)Nc2cccc([N+](=O)[O-])c2)cc1)c1ccccc1 (stereo not given),"inconclusive: 20.6 µM [falling, single point]"
17,O=C(NCc1ccco1)C1CCCN(c2ncnc3c2nc2n3CCCCC2)C1 (stereo not given),"inconclusive: 29.1 µM [falling, single point]"
18,CC(=O)Nc1ccc(/C=C/c2nc3ccccc3o2)cc1,"inconclusive: 14.6 µM [falling, partial curve, poor fit]"
19,O=C(O)c1ccccc1OC1=NS(=O)(=O)c2ccccc21,inactive
20,Cc1ccc(S(=O)(=O)N2CCOCC2)cc1C(=O)OCCOc1cccc(Cl)c1,"inconclusive: 2.59 µM [falling, partial curve]"

row,SMILES,Potency
1,CC(=O)c1cc(NC(=O)c2cccc(C(F)(F)F)c2)c(=O)oc1/C=C/N(C)C,"inconclusive: 1.84 µM [activator, partial curve]"
2,C/C(=C\C(=O)c1ccc(Br)cc1)NCc1ccc2c(c1)OCO2,"inconclusive: 25.9 µM [falling, single point]"
3,O=C(CCl)Nc1ccc(S(=O)(=O)Nc2nccs2)cc1,"inconclusive: 20.6 µM [activator, partial curve]"
4,COc1ccc(-c2csc(Nc3ccccc3)[n+]2CC(O)c2ccc([N+](=O)[O-])cc2)cc1 (stereo not given),"inconclusive: 29.1 µM [falling, single point]"
5,O=C(COC(=O)c1ccc(Br)o1)Nc1cccc(S(=O)(=O)N2CCCCCC2)c1,"inconclusive: 32.6 µM [falling, single point]"
6,Cc1cc(C)c(C#N)c(SCc2ccc3c(c2)OCO3)n1,"inconclusive: 0.92 µM [falling, full curve, poor fit]"
7,Cc1cc(/C=C2\SC(N)=NC2=O)c(C)n1-c1ccc(F)cc1,"inconclusive: 7.31 µM [activator, partial curve]"
8,COc1cc(C(=O)Nc2ccc3nn(-c4ccc(F)cc4)nc3c2)cc(OC)c1OC,inactive
9,Cc1ccc(NCc2cccn2-c2nnc(N3CCCCCC3)s2)cc1,"inconclusive: 29.1 µM [falling, single point]"
10,COc1cc(/C=C2\SC(=S)N(NS(=O)(=O)c3ccc(C)cc3)C2=O)cc(OC)c1OC,"inconclusive: 18.4 µM [activator, single point]"
11,Cc1ccccc1-c1cc(C(=O)NCc2cccs2)nn1CC1CC(c2cccc([N+](=O)[O-])c2)=NO1 (stereo not given),"inconclusive: 14.6 µM [falling, partial curve]"
12,Nc1cc(=O)[nH]c(SCCOc2ccccc2)n1,inactive
13,O=C(Nc1ccc(Nc2ccncc2)cc1)c1ccc([N+](=O)[O-])cc1,active: 18.4 µM
14,O=C(NC1CCCC1)c1cc(-c2ccccc2)nc2ccccc12,inactive
15,CC(Oc1ccccc1)C(=O)NC1=NCCS1 (stereo not given),"inconclusive: 1.84 µM [activator, full curve]"
16,CCCCCOCC1CC(C/C(C)=N/Nc2nc(-c3ccccc3)cs2)C(=O)O1 (stereo not given),"inconclusive: 2.06 µM [activator, full curve, poor fit]"
17,Cc1nn2c(-c3cccc(NC(=O)CN4CCOCC4)c3)nnc2c2ccccc12,"inconclusive: 0.58 µM [falling, partial curve, poor fit]"
18,COc1ccccc1/C=C/C1(C(=O)NC2CCCC2)CC(=O)N1c1ccc(C)cc1 (stereo not given),"inconclusive: 10.3 µM [falling, partial curve, poor fit]"
19,O=C(COc1ccc(/C=N/NC(=O)c2cc3ccccc3o2)cc1Cl)Nc1ccccc1,"inconclusive: 16.4 µM [falling, single point]"
20,CC1=C(C(=O)Nc2ccccc2)C(c2ccccc2)n2nc(-c3ccco3)nc2N1 (stereo not given),inactive

# — PubChem BioAssay AID504444 (National Center for Advancing Translational Sciences (NCATS), 2011)
